PubChem BioAssay AID1224826, NIAID, 2016
The whole screen tested about 17,000 reagents; below is a part drawn at random. Of all reagents, about 1,110 (6.6%) are marked active. 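Active means lowered or raised reporter signal; replicate intensities are raw and not normalised per plate.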 Reagent sequences are not shown.

Screen: 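Knock-downs that raise or lower Tnf reporter signal after endotoxin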 (primary screen)
Cell system: RAW264.7 G9 macrophages from mouse bearing reporters for p65 (GFP) and the Tnf promoter (mCherry)
Reagents: siRNA pool against mouse genes, 100 nM
Duration: 16 h of LPS stimulation, after 2 days of siRNA transfection
Challenge: bacterial lipopolysaccharide (Salmonella minnesota R595), 10 ng/ml
Measurement: 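Nuclear mCherry signal of the Tnf promoter reporter measured by imaging after background removal, scaled to each plate median and turned into robust z-scores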
Scale: Tnf reporter robust z-score: higher = stronger Tnf promoter reporter signal after LPS; Tnf reporter intensity: higher = stronger Tnf promoter reporter signal
Hit rule: 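Called active when robust z-score is at most -1.3, matching the median of the Tlr4 knock-down control, or over 3; control wells and wells with under 50 cells never active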
Meaning of the calls: active = Tnf reporter clearly lowered or raised; inactive = no clear change in Tnf reporter

| target | Tnf reporter robust z-score | fewer than 50 cells in well | Tnf reporter intensity, replicate 1 | Tnf reporter intensity, replicate 2 | Call |
| --- | --- | --- | --- | --- | --- |
| Bmp10 (GeneID 12154) | 2.64 | enough cells in well | 235 | 272 | inactive |
| Nsg1 (GeneID 18196) | -0.73 | enough cells in well | 171 | 89.2 | inactive |
| Slc38a10 (GeneID 72055) | – | fewer than 50 cells per well; well left out of calls | 114 | 48.8 | inactive |
| Tnnt3 (GeneID 21957) | – | fewer than 50 cells per well; well left out of calls | 0 | 42.1 | inactive |
| Pianp (GeneID 319352) | -0.66 | enough cells in well | 96.4 | 112 | inactive |
| Ndor1 (GeneID 78797) | -0.61 | enough cells in well | 194 | 76.7 | inactive |
| Dtnb (GeneID 13528) | -0.77 | enough cells in well | 169 | 154 | inactive |
| Samtor (GeneID 101148) | -0.37 | enough cells in well | 192 | 167 | inactive |
| Ptprcap (GeneID 19265) | 0.43 | enough cells in well | 299 | 205 | inactive |
| Mknk1 (GeneID 17346) | 1.11 | enough cells in well | 266 | 224 | inactive |
| Ddit4 (GeneID 74747) | -0.89 | enough cells in well | 182 | 103 | inactive |
| Cnga2 (GeneID 12789) | -0.71 | enough cells in well | 71.3 | 207 | inactive |
| Cuzd1 (GeneID 16433) | -0.27 | enough cells in well | 133 | 197 | inactive |
| Cfap52 (GeneID 71860) | -1.66 | enough cells in well | 98.7 | 48.4 | active |
| Or1a1b (GeneID 258706) | 0.56 | enough cells in well | 353 | 96.8 | inactive |
| Gpt (GeneID 76282) | -0.62 | enough cells in well | 174 | 143 | inactive |
| Znhit2 (GeneID 29805) | – | fewer than 50 cells per well; well left out of calls | 0 | 0 | inactive |
| Efcab8 (GeneID 100504221) | 1.07 | enough cells in well | 138 | 224 | inactive |
| Sprr2b (GeneID 20756) | -0.35 | enough cells in well | 119 | 59.3 | inactive |
| Uba3 (GeneID 22200) | -0.52 | enough cells in well | 165 | 218 | inactive |
| Tbc1d7 (GeneID 67046) | – | fewer than 50 cells per well; well left out of calls | 98.6 | 74.1 | inactive |
| A830019P07Rik (GeneID 329056) | -0.99 | enough cells in well | 110 | 106 | inactive |
| Spag1 (GeneID 26942) | -1.43 | enough cells in well | 176 | 84.5 | active |
| Gemin7 (GeneID 69731) | -1.19 | enough cells in well | 129 | 94.8 | inactive |
| Or6c69 (GeneID 258667) | 1.27 | enough cells in well | 95.5 | 169 | inactive |
| Ifitm7 (GeneID 74482) | -0.91 | enough cells in well | 148 | 80.9 | inactive |
| Slc7a15 (GeneID 328059) | – | fewer than 50 cells per well; well left out of calls | 138 | 158 | inactive |
| Slc35f3 (GeneID 210027) | – | fewer than 50 cells per well; well left out of calls | 82.4 | 57.3 | inactive |
| Rps27a (GeneID 78294) | – | fewer than 50 cells per well; well left out of calls | 43.1 | 36.7 | inactive |
| Fbxo31 (GeneID 76454) | -0.89 | enough cells in well | 173 | 147 | inactive |
| Or5w20 (GeneID 258633) | -0.99 | enough cells in well | 125 | 101 | inactive |
| Tas2r121 (GeneID 387349) | 0.41 | enough cells in well | 352 | 88.3 | inactive |
| Ankrd10 (GeneID 102334) | -0.77 | enough cells in well | 150 | 140 | inactive |
| Plpp1 (GeneID 19012) | -1.28 | enough cells in well | 140 | 108 | inactive |
| Capns1 (GeneID 12336) | -0.22 | enough cells in well | 137 | 147 | inactive |
| Tes (GeneID 21753) | – | fewer than 50 cells per well; well left out of calls | 80.5 | 54.9 | inactive |
| Morc4 (GeneID 75746) | -0.89 | enough cells in well | 133 | 93.9 | inactive |
| Naxd (GeneID 69225) | -0.61 | enough cells in well | 185 | 60.1 | inactive |
| Or5h24-ps1 (GeneID 404309) | -0.23 | enough cells in well | 188 | 96.1 | inactive |
| Clip2 (GeneID 269713) | 0.43 | enough cells in well | 262 | 239 | inactive |
